Test results as given in PMC5854669, “Zinc knuckle of TAF1 is a DNA binding module critical for TFIID promoter occupancy”.
These are yes or no findings as the source states them, for the method shown. In cells and extracts the contact can be indirect. Binding calls can cover weak binding; strength is not graded here.

Chains of the proteins cited; added tags and fusions are not shown. Lines headed by an entry give the natural chain unless they say otherwise; changes in a name come on top.
UniProt O00268: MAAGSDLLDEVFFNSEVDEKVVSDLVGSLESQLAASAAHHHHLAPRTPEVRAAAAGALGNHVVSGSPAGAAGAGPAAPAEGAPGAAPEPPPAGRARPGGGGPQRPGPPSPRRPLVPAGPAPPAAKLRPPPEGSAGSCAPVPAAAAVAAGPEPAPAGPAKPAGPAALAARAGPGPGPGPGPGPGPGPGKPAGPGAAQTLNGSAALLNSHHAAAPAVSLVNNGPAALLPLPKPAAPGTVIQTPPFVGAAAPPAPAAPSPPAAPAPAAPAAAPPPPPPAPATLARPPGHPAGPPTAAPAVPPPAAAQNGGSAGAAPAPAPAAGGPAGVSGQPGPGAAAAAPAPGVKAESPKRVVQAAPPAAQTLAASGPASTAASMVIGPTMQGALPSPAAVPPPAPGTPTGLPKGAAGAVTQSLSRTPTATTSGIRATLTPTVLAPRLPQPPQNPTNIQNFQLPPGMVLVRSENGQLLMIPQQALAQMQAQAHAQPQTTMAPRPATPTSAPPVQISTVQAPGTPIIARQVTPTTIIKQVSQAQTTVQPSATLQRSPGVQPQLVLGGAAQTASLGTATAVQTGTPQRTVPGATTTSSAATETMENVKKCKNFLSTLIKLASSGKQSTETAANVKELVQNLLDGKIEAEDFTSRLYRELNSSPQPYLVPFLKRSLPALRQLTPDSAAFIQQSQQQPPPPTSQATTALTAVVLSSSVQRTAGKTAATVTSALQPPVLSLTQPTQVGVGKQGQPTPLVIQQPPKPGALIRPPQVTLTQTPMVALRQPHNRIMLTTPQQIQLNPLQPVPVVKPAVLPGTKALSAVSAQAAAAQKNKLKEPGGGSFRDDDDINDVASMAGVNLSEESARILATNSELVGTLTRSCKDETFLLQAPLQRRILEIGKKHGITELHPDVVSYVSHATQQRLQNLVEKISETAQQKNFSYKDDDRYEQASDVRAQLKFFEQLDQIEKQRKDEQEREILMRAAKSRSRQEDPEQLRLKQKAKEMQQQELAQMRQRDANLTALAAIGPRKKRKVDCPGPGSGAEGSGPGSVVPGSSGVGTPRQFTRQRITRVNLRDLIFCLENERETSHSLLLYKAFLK
UniProt P21675: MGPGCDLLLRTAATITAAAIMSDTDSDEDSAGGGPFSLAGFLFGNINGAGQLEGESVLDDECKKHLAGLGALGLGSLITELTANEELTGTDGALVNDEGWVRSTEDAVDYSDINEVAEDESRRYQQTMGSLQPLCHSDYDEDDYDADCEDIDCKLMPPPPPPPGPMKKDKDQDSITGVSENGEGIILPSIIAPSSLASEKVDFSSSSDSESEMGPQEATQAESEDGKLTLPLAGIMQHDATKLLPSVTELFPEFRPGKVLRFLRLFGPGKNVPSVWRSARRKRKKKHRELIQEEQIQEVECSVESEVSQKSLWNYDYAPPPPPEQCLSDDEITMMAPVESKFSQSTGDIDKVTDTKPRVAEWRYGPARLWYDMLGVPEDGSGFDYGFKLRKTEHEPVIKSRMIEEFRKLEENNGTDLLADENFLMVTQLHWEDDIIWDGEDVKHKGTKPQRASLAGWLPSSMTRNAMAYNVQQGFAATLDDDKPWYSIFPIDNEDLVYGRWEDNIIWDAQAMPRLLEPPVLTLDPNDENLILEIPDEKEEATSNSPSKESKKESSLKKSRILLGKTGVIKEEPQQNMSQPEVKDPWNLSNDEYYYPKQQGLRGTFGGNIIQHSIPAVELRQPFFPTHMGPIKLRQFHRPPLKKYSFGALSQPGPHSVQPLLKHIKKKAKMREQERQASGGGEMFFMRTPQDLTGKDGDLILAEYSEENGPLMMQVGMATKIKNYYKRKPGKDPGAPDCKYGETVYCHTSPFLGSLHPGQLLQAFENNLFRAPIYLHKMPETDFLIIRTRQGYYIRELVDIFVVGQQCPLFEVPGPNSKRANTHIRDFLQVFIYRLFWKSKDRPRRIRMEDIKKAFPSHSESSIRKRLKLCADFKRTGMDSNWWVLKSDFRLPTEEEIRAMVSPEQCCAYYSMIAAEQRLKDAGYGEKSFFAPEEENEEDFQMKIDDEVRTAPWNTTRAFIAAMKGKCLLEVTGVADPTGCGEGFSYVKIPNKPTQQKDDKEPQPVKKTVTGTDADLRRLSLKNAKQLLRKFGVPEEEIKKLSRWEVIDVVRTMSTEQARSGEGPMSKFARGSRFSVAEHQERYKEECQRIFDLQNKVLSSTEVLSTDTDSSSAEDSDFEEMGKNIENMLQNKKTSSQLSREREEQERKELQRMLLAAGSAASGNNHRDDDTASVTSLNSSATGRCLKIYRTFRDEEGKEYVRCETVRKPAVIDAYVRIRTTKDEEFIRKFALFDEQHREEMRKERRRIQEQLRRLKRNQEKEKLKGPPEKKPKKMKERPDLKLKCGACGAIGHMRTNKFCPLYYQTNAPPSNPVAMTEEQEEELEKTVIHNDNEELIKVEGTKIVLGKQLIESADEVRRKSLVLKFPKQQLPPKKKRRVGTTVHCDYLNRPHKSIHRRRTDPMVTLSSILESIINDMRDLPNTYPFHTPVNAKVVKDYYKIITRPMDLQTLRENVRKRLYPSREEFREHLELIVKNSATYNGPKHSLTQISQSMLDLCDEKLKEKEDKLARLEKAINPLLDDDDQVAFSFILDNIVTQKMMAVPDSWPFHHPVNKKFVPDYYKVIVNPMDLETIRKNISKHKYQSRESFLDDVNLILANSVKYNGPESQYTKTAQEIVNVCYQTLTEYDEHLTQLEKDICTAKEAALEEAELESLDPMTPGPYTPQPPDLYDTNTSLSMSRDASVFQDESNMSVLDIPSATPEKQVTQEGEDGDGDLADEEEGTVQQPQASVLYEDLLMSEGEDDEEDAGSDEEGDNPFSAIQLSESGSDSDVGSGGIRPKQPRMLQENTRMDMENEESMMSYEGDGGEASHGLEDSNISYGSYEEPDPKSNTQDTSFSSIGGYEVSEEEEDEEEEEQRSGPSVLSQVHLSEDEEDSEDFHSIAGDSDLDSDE

Biological target: TAF4 subunit of TFIID (human (endogenous in HEK293)) (UniProt O00268)
Assay: co-IP; HEK293 nuclear extract (buffer C, 420 mM NaCl) incubated with anti-TAF4 mAb 3A6 overnight at 4 °C, protein A-Sepharose, washed 5 times with buffer C; immunoblot with anti-HA and antibodies against TBP, TAF4 and TAF5

Question: With “HA-TAF1 winged-helix mutant (WH3A) (from UniProt P21675)” as the substance, how does the binding read?
Answer: Its binding is “binds”.
